According to patent publication US20260000655A1, “PHARMACEUTICAL COMPOSITION FOR USE IN PREVENTION OR TREATMENT OF LIFESTYLE-RELATED DISEASE” (priority 2022, published 2026):

System: high-fat diet-induced obesity model mice
Assay: Organ weight in mouse
Type: in vivo
Conditions: HPH-15 10 or 100 mg/kg, metformin 300 mg/kg, orally once a day 28 days; compared to olive oil
Description: The changes in organ weights when HPH-15 was administered were examined.
High-fat diet-induced obesity model mice were prepared in the same manner as in Example 7. Then, HPH-15 (10 mg/kg or 100 mg/kg, […]) dissolved in olive oil or metformin (300 mg/kg, […]) was orally administered once a day for 28 days. Olive oil alone was administered as a control. After 28 days of administration of each, the liver, muscle, subcutaneous fat, and epididymis of the high-fat diet-induced obesity model mice were excised and weighed.

| Structure (SMILES) | epididymis weight | liver weight | muscle weight |
| --- | --- | --- | --- |
| CN(C)C(=N)N=C(N)N [metformin, reference compound] | no significant differences were observed | no significant differences were observed | no significant differences were observed |
| CC(C)(C)SCCNC(=S)c1cccc(C(=S)NCCSC(C)(C)C)n1 [HPH-15] | no significant differences were observed | no significant differences were observed | no significant differences were observed |
